Whole data set: some 33,000 sequences, median “E-score (-0.5 to 0.5)” near -0.0014, cut for the highest 2% near 0.25. The list shows a part of the results.
biological target: T1, Cad1 (UniProt P24813); test: PBM E-score (8-mer binding enrichment) (E-score (-0.5 to 0.5)); higher = stronger / more preferred TF binding; conditions: protein concentration: 100 nM; construct: GST-full length
T1 sequence: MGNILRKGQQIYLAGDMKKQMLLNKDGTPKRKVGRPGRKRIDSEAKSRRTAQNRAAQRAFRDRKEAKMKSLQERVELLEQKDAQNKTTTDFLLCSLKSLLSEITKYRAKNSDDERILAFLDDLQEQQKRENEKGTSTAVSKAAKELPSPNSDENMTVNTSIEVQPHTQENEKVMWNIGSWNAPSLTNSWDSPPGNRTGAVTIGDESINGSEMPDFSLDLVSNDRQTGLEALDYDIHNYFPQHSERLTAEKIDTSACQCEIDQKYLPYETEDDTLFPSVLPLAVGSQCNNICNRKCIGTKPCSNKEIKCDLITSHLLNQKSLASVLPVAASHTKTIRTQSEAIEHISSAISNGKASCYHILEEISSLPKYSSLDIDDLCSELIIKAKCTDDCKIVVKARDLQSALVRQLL
In short: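 Using PURExpress in vitro transcription/translation, GST-tagged yeast transcription factors were made in full-length or DNA-binding-domain form. These were applied at about 100-200 nM to double-stranded universal all-10-mer Agilent arrays, and bound protein was detected with fluorescent anti-GST. Scans were normalised with masliner before the Universal PBM Analysis Suite assigned E-scores to ungapped eight-base words pooled with their reverse complements.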

| Sequence | PBM E-score |
| --- | --- |
| ATAATAGA | 0.00523 |
| AATCGAGT | 0.0822 |
| CATACATA | 0.161 |
| AGACAGGC | -0.133 |
| AAGGTCCT | -0.13 |
| ATACACGA | -0.117 |
| AGTGTTCG | 0.113 |
| AATAACGA | 0.217 |
| CGATACCC | -0.118 |
| ACAGCTAT | -0.0503 |
| CCGTCCTA | -0.176 |
| GCTGTTAA | 0.194 |
| CAGTGACG | -0.0082 |
| ACGCGTTG | 0.0693 |
| CCAGTTCG | 0.0761 |
| AGGAATCC | -0.0411 |
| CTTACGCC | 0.109 |
| ATCGGGTA | -0.149 |
| TACATCGA | 0.0368 |
| ACGCTGAC | 0.3 |
| GTACCAAC | 0.0794 |
| ATCGAAAC | 0.0575 |
| GCCTAAAA | -0.11 |
| CCTGCGCA | -0.153 |
| CAGGCCCA | -0.168 |

| Sequence | PBM E-score |
| --- | --- |
| AGATGTGA | 0.108 |
| AAGCAATT | 0.141 |
| TATGAAGA | 0.117 |
| GCATTTTA | 0.199 |
| CGTGTGAG | -0.0767 |
| GAATGATA | 0.223 |
| AAAACTCA | 0.151 |
| ACGGCACT | 0.0453 |
| CATCGACC | 0.0718 |
| CTTTCGCA | -0.016 |
| ATCTAAAT | 0.174 |
| CTTCGGTC | 0.0799 |
| CGCCGGAG | -0.124 |
| AACTAAAC | 0.0556 |
| GCCATCGA | 0.129 |
| CAGGAGGC | -0.167 |
| CGGTCGTA | -0.123 |
| GCAAAAGC | 0.0393 |
| GGGGTCCA | -0.257 |
| ACGAGGCA | -0.0231 |
| CAAGGTAG | -0.0118 |
| CACGAGGC | 0.0813 |
| CGGCAAAA | -0.0316 |
| GCCAACCC | -0.118 |
| GAGGTTAA | -0.0435 |

Random excerpt: two records from the list.

| Sequence | PBM E-score |
| --- | --- |
| TATGAAGA | 0.117 |
| AAGCAATT | 0.141 |

(cont.)

| Sequence | PBM E-score |
| --- | --- |
| ATTTTATC | 0.156 |
| AGAGGCCC | -0.288 |
| AGCGATTC | -0.021 |
| ACTCCTTG | -0.0525 |
| ACGCTACC | -0.199 |
| AAATACGA | 0.159 |
| CTGCTACC | -0.0444 |
| CCATAGTA | 0.0614 |
| AGTGAACG | -0.0194 |
| ATCGTGAC | 0.0186 |
| CAATTACC | -0.0374 |
| GCTTAGTA | 0.344 |
| ATTCTCGA | 0.198 |
| GAAATGAC | 0.154 |
| AATTTTGC | 0.181 |
| AAGCCCTG | -0.149 |
| AATATGCG | 0.154 |
| CCACTATA | 0.146 |
| GTTTCCGA | 0.121 |
| CCCATTCG | -0.0505 |
| GCCGGAGC | -0.255 |
| GCAGGACC | -0.23 |
| CCATATGC | 0.132 |
| CAGCATCG | -0.0989 |
| AGGGATTC | 0.0269 |

| Sequence | PBM E-score |
| --- | --- |
| CGCTGGCA | 0.0579 |
| CCTATTAG | 0.0946 |
| CCCCATAA | -0.117 |
| ACGGCCGA | 0.191 |
| CAGCGTCG | 0.0191 |
| ATGTAAGG | 0.0288 |
| CCAGAGCC | -0.0798 |
| GACTAATA | 0.372 |
| CGCTTCTC | -0.0668 |
| GGAACTGA | -0.105 |
| ACGGATAG | 0.0118 |
| CAAACCCG | 0.0302 |
| AGTTAGCC | -0.0174 |
| GATCTATA | 0.0879 |
| CTGGCCAC | 0.00652 |
| ACCTGTCC | -0.157 |
| GATTTGTA | 0.228 |
| CGCTTTAG | 0.0748 |
| GTTGTTGA | 0.19 |
| TAGAAATA | 0.0668 |
| AGTGAACA | 0.121 |
| TGGTCGAA | -0.175 |
| AGAATGCC | -0.0316 |
| CCGGCAAA | 0.138 |
| GTAATAAA | 0.187 |

| Sequence | PBM E-score |
| --- | --- |
| AGCACAAT | -0.0595 |
| ACACCATC | 0.0408 |
| GTCAGTTA | -0.0253 |
| CATGTGGG | 0.0224 |
| CACAGTGA | 0.0585 |
| AACGGTTC | 0.094 |
| AAAGACAA | 0.166 |
| ACCTGTTC | -0.0841 |
| ACCGACGT | 0.183 |
| ATCTACTG | 0.0914 |
| GCACGTTA | -0.0382 |
| ACCATAAT | 0.101 |
| CCCAGGCG | -0.201 |
| CTCTTCTC | -0.258 |
| CATTCACA | 0.0696 |
| ACTTGCTC | -0.2 |
| CATGTTTA | 0.0394 |
| TCAGGGAA | -0.0349 |
| TCTTGCCA | -0.0865 |
| GCGCCATA | -0.00134 |
| AGTTTGCA | -0.0335 |
| AAATGCAG | 0.00669 |
| CCGATCCC | -0.218 |
| CGTCGTAA | -0.0847 |
| CACAGATC | -0.0249 |

Part of the list above, set out differently.
AACGGTTC
  PBM E-score: 0.094
CACAGATC
  PBM E-score: -0.0249

Continuation.

| Sequence | PBM E-score |
| --- | --- |
| AATGGGTC | -0.202 |
| AAATTCTG | 0.188 |
| AAGATTGG | -0.0113 |
| GGCACGAC | -0.129 |
| AGAGACTA | -0.224 |
| CACAGCTC | -0.0387 |
| CAACTTCC | -0.0977 |
| ACCTAGTG | 0.0789 |
| CTACATAG | -0.0219 |
| CTGATCCC | -0.169 |
| ACCACGAC | 0.0193 |
| GCTTGCGA | 0.118 |
| ATTCATTG | 0.172 |
| AAGCTCAC | 0.00427 |
| AGATGGCT | -0.127 |
| CCCCTCGG | -0.288 |
| ATCACATG | 0.00263 |
| ACAACGGA | 0.241 |
| ATAAGTGA | -0.0226 |
| AGCGTAGA | -0.292 |
| AGCTGCCC | 0.111 |
| AATCAGGA | 0.17 |
| GCCAATAC | 0.0227 |
| GACCCGCC | 0.0402 |
| CTTTGAGA | 0.0374 |

As entered above.
PBM E-score, ATAAGTGA reads -0.0226
PBM E-score, AGATGGCT reads -0.127
PBM E-score, AGAGACTA reads -0.224

(next part)

| Sequence | PBM E-score |
| --- | --- |
| ATTCCGCA | -0.0887 |
| AACCCATG | 0.118 |
| AAATGTTC | -0.00058 |
| CTAAAAGC | -0.0963 |
| CCCCCTTC | -0.476 |
| CAACATTC | -0.0255 |
| TGCCACAA | 0.0765 |
| CGTTACGC | 0.0375 |
| TAACGGAA | 0.212 |
| CACTTGGG | -0.164 |
| ACCCGGGT | -0.0797 |
| AGCGCTTC | 0.122 |
| CAAAATGG | 0.012 |
| CCCGAACG | -0.0332 |
| ATGGCAAG | -0.0516 |
| AGTATCAG | -0.0196 |
| AAGAGCAT | -0.0967 |
| ACATGGTG | -0.0624 |
| CTCGAGGA | 0.0981 |
| ACGGGACC | -0.197 |
| ACGTTATG | 0.0915 |
| CATGGCTA | 0.0161 |

— the supplement of paper PMC3334620
